{"sequences": {"note": "Protein sequences, listed by entry. Tags and fused reporters are not part of them. Lines headed by an entry give the natural chain unless they say otherwise; changes in a name come on top.", "UniProt Q15349, whole entry": "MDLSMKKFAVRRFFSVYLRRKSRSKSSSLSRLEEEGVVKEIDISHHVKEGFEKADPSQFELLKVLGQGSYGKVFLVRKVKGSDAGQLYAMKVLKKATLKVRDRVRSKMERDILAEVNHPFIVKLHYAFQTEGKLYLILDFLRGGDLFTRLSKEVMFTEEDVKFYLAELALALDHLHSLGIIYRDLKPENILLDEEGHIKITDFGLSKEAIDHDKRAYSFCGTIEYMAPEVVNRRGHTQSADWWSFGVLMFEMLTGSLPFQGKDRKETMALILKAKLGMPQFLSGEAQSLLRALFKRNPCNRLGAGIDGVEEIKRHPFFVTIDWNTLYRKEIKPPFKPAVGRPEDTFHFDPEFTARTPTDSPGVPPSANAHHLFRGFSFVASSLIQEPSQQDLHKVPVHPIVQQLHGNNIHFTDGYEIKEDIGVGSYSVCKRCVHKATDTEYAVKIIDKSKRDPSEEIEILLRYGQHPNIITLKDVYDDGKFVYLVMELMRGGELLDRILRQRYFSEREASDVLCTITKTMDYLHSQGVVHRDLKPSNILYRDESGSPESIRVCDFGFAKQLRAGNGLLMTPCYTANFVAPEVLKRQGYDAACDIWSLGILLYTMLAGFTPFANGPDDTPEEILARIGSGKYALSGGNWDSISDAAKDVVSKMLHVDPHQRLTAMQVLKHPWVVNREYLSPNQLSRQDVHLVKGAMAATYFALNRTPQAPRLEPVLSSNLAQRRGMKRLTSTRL", "UniProt Q16629": "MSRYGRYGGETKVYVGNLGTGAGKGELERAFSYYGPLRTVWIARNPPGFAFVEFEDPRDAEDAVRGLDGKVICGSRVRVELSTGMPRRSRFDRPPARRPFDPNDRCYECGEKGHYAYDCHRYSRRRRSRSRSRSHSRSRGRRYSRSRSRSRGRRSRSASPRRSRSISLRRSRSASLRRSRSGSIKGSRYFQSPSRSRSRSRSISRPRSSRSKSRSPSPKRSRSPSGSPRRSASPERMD", "UniProt Q2M3D2": "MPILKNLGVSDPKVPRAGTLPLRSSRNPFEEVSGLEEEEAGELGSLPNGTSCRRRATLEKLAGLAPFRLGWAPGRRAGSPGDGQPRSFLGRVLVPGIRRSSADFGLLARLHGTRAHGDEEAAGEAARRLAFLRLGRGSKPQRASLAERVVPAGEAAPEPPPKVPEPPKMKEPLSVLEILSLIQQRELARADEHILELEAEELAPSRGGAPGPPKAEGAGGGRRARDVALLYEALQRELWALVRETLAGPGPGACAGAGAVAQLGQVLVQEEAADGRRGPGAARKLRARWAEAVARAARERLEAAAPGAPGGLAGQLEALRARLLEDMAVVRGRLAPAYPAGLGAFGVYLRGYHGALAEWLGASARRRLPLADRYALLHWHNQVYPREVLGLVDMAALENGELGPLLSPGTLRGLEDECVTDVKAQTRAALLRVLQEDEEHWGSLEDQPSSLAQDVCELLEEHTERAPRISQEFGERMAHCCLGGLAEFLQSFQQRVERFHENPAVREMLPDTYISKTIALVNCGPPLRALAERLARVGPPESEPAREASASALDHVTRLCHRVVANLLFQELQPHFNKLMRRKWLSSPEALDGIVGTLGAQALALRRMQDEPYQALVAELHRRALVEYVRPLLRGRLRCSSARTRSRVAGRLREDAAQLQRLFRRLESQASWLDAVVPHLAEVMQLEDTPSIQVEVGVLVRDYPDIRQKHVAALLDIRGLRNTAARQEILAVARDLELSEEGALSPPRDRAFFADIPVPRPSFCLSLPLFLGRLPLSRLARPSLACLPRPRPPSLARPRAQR", "UniProt Q15797": "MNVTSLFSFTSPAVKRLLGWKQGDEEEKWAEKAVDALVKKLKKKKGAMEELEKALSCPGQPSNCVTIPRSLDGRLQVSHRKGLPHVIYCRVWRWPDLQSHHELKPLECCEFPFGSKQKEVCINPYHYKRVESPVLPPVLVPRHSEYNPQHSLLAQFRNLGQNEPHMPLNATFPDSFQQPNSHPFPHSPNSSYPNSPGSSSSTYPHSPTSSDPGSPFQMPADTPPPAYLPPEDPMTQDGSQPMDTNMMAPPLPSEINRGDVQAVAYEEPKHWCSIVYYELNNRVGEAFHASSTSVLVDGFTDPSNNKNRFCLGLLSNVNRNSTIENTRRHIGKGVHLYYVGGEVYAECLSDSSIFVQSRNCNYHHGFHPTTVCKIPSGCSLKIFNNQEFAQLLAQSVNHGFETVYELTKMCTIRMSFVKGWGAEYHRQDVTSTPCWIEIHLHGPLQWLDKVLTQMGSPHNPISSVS", "UniProt Q15560": "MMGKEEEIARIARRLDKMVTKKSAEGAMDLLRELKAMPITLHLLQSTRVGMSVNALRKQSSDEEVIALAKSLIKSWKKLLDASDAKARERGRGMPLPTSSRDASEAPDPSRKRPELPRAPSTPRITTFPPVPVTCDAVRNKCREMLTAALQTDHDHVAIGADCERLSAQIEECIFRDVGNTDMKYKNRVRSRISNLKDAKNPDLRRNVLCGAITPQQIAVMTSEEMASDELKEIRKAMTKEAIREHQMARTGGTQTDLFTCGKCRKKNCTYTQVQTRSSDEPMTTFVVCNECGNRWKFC", "UniProt Q15042": "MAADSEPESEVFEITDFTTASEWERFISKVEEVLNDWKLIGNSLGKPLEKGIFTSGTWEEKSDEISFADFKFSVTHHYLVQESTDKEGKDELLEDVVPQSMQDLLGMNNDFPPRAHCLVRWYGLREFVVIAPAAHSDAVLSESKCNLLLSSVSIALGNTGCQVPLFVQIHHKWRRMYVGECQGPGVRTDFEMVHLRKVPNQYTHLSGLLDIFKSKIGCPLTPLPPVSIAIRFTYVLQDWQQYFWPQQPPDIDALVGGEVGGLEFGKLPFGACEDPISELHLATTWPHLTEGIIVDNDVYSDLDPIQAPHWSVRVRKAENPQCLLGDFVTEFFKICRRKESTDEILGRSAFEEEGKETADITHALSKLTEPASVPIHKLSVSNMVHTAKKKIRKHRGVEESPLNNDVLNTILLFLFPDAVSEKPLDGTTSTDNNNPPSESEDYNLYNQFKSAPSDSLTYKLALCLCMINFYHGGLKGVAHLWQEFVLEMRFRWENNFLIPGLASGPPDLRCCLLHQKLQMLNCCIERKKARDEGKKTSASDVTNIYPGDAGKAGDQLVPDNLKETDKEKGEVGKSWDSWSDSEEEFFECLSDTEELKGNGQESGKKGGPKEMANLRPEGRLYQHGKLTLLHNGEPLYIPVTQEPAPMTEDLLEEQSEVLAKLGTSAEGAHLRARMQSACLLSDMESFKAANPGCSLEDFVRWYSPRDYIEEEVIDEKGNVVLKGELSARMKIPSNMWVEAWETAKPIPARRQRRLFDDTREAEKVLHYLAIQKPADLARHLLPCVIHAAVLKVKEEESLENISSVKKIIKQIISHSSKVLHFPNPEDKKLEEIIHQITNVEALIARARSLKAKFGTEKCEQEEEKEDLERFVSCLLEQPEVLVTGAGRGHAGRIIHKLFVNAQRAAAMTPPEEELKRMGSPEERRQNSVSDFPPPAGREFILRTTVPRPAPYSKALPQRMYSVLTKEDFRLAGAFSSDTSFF", "UniProt Q15334": "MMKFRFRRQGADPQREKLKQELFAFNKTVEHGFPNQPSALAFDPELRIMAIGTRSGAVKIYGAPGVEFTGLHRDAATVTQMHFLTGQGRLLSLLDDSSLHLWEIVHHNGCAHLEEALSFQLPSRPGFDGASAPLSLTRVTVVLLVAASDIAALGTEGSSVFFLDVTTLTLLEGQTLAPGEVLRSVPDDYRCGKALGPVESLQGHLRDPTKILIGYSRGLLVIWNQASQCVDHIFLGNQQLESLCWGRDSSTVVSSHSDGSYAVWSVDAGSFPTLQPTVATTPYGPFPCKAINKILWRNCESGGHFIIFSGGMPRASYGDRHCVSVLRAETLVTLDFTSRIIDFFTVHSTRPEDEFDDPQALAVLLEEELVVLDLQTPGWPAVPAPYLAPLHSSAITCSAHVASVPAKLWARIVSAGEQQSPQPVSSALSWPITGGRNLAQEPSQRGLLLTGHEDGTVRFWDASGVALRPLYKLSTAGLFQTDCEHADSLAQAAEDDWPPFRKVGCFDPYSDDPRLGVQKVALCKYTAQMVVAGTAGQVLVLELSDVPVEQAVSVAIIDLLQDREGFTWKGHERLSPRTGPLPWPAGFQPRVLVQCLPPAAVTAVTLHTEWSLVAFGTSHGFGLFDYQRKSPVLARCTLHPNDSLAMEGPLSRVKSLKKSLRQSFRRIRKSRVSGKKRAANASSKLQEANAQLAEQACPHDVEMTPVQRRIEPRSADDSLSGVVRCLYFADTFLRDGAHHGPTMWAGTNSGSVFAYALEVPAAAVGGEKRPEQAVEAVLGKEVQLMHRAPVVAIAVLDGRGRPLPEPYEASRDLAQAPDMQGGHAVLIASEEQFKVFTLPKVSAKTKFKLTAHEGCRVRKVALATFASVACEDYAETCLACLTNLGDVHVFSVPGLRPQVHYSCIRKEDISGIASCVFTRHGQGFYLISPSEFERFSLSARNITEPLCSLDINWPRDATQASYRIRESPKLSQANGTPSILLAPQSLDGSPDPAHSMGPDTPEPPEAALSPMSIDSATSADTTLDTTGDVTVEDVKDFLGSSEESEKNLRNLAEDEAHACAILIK", "UniProt Q16656": "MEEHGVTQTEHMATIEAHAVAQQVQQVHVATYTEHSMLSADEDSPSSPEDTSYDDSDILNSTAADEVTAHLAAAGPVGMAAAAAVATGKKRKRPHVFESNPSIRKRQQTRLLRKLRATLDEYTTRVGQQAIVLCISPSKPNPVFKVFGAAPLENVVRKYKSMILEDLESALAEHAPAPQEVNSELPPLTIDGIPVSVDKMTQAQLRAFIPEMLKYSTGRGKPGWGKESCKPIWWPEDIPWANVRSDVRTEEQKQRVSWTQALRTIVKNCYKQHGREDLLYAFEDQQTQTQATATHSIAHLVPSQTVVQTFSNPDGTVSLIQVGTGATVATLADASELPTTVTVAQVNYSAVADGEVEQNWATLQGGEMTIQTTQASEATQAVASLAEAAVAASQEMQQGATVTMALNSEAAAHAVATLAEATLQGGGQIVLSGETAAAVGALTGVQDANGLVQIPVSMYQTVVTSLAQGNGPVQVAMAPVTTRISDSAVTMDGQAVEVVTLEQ", "UniProt Q16851": "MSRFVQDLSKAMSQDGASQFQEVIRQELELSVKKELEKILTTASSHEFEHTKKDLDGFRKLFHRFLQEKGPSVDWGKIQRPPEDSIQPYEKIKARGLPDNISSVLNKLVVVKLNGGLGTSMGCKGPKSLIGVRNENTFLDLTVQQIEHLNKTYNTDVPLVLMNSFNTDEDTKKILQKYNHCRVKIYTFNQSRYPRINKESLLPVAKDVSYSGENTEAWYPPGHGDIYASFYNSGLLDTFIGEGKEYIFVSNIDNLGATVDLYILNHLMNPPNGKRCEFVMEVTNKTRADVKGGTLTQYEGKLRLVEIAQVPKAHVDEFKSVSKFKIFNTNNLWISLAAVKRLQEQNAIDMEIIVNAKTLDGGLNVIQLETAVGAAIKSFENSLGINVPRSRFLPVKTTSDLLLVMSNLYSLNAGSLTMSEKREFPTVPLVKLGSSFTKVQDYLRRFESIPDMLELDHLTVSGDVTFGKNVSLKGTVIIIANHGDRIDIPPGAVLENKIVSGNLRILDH", "UniProt Q15029": "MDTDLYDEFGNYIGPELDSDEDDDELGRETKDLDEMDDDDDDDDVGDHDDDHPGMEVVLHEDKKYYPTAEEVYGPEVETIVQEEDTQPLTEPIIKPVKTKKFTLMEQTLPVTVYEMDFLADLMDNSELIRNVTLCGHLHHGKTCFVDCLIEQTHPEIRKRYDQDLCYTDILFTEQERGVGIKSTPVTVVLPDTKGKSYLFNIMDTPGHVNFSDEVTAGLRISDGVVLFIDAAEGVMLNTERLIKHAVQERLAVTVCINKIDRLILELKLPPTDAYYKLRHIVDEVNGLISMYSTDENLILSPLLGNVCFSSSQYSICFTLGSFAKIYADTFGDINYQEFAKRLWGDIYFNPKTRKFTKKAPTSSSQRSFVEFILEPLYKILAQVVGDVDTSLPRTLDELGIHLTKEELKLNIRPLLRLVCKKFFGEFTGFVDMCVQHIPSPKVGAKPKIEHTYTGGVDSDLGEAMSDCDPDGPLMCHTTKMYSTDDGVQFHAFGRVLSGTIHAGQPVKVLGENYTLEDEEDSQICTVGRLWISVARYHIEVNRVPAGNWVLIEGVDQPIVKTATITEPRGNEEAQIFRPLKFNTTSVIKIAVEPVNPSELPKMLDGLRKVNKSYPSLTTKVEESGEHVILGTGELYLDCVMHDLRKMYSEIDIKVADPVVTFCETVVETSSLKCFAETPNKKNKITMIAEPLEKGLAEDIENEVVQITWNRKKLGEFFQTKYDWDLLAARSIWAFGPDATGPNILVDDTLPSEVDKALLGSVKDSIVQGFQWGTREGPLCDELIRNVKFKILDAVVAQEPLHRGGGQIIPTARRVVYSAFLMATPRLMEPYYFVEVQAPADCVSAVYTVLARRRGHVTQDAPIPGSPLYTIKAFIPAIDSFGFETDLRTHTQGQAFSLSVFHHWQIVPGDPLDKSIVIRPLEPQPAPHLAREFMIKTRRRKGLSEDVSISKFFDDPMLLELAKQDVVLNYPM"}, "source": "the supplement of paper PMC12819154", "about": "“High-throughput peptide-centric local stability assay extends protein–ligand identification to membrane proteins, tissues and bacteria” (Nature Structural & Molecular Biology, 2025)", "note": "This is one part of the list. Small differences around the control level are noise.", "data": [{"compound": "Cc1nc(Nc2ncc(C(=O)Nc3c(C)cccc3Cl)s2)cc(N2CCN(CCO)CC2)n1 [dasatinib]", "assay": "log2 fold change of tryptic peptide abundance, ligand vs vehicle (limited proteolysis) (log2 ratio); higher = more trypsin-susceptible (destabilized)", "conditions": "ligand concentration: 5 uM; sample: K562 cleared lysate", "values": [{"target": "RPS6KA2 (peptide sequence: SKRDPSEEIEILLR, peptide start residue: 452) (UniProt Q15349)", "log2 fold change": -0.125}, {"target": "ITSN1 (peptide sequence: DKQWLEHVQQEDEHQRPR, peptide start residue: 657) (UniProt Q15811)", "log2 fold change": -0.352}, {"target": "UniProt Q16629 (peptide sequence: CYECGEK, peptide start residue: 106)", "log2 fold change": 0.19}, {"target": "UniProt Q16584 (peptide sequence: ITVQASPGLDR, peptide start residue: 502)", "log2 fold change": -0.521}, {"target": "UniProt Q2M3D2 (peptide sequence: MQDEPYQALVAELHRR, peptide start residue: 215)", "log2 fold change": -0.476}, {"target": "PFKFB4 (peptide sequence: DSDEATEDFMR, peptide start residue: 183) (UniProt Q16877)", "log2 fold change": 0.126}, {"target": "CCDC85B (peptide sequence: DLCCFLDSER, peptide start residue: 79) (UniProt Q15834)", "log2 fold change": 0.193}, {"target": "SMAD1 (peptide sequence: RVESPVLPPVLVPR, peptide start residue: 130) (UniProt Q15797)", "log2 fold change": -0.163}, {"target": "UniProt Q16670 (peptide sequence: FIQHLDLIEHASTHTGK, peptide start residue: 240)", "log2 fold change": -0.621}, {"target": "UniProt Q15257 (peptide sequence: LVALLNTLDR, peptide start residue: 112)", "log2 fold change": 0.416}, {"target": "TCEA2 (peptide sequence: ISNLKDAK, peptide start residue: 195) (UniProt Q15560)", "log2 fold change": 0.263}, {"target": "ACAP2 (peptide sequence: AQLQNFVKEDLRK, peptide start residue: 107) (UniProt Q15057)", "log2 fold change": 0.471}, {"target": "UniProt Q2TAC6 (peptide sequence: KREESLEAK, peptide start residue: 879)", "log2 fold change": -0.281}, {"target": "UAP1L1 (peptide sequence: QALLTQHYR, peptide start residue: 425) (UniProt Q3KQV9)", "log2 fold change": 0.494}, {"target": "MED22 (peptide sequence: ETLLQSYNKR, peptide start residue: 12) (UniProt Q15528)", "log2 fold change": 0.259}, {"target": "CPEB4 (peptide sequence: RSPASPHPPPFTHR, peptide start residue: 251) (UniProt Q17RY0)", "log2 fold change": 0.391}, {"target": "UniProt Q15369 (peptide sequence: EIPSHVLSK, peptide start residue: 64)", "log2 fold change": -0.0663}, {"target": "UniProt Q15042 (peptide sequence: LQMLNCCIERK, peptide start residue: 517)", "log2 fold change": -0.326}, {"target": "LLGL1 (peptide sequence: LTAHEGCR, peptide start residue: 849) (UniProt Q15334)", "log2 fold change": -0.256}, {"target": "SURF2 (peptide sequence: KDLGSTEDGDGTDDFLTDKEDEK, peptide start residue: 179) (UniProt Q15527)", "log2 fold change": 0.211}, {"target": "UniProt Q15046 (peptide sequence: FELFVMKK, peptide start residue: 486)", "log2 fold change": -0.251}, {"target": "SNAPC1 (peptide sequence: AFSVVIQASK, peptide start residue: 269) (UniProt Q16533)", "log2 fold change": -0.121}, {"target": "NRF1 (peptide sequence: RPHVFESNPSIR, peptide start residue: 93) (UniProt Q16656)", "log2 fold change": -0.38}, {"target": "ELF2 (peptide sequence: ALTPVSIAHGTPVMR, peptide start residue: 495) (UniProt Q15723)", "log2 fold change": 0.322}, {"target": "MYLK3 (peptide sequence: SDDNDHEVGALGLQQGK, peptide start residue: 433) (UniProt Q32MK0)", "log2 fold change": -0.061}, {"target": "DBN1 (peptide sequence: EQSIFGDHRDEEEETHMK, peptide start residue: 253) (UniProt Q16643)", "log2 fold change": 0.0877}, {"target": "UniProt Q16637 (peptide sequence: SPGNKSDNIKPK, peptide start residue: 175)", "log2 fold change": 0.704}, {"target": "WTAP (peptide sequence: TNEEPLPK, peptide start residue: 2) (UniProt Q15007)", "log2 fold change": -0.716}, {"target": "GUK1 (peptide sequence: VAVQAVQAMNR, peptide start residue: 86) (UniProt Q16774)", "log2 fold change": 0.0872}, {"target": "UniProt Q2M1P5 (peptide sequence: MKEELIGELVR, peptide start residue: 719)", "log2 fold change": -0.0349}, {"target": "CDC37 (peptide sequence: EYEEEER, peptide start residue: 277) (UniProt Q16543)", "log2 fold change": 0.0906}, {"target": "UniProt Q2VPK5 (peptide sequence: DGPAAGDSGPR, peptide start residue: 377)", "log2 fold change": 0.185}, {"target": "UniProt Q16181 (peptide sequence: KNLEAQHK, peptide start residue: 388)", "log2 fold change": -0.145}, {"target": "UGP2 (peptide sequence: FLQEKGPSVDWGK, peptide start residue: 65) (UniProt Q16851)", "log2 fold change": 0.333}, {"target": "EFTUD2 (peptide sequence: NVTLCGHLHHGK, peptide start residue: 131) (UniProt Q15029)", "log2 fold change": -0.391}, {"target": "NFKBIB (peptide sequence: TPLGSAMLRPNPILAR, peptide start residue: 276) (UniProt Q15653)", "log2 fold change": -0.111}, {"target": "BRD3 (peptide sequence: DLEDGEVPQHAGKK, peptide start residue: 292) (UniProt Q15059)", "log2 fold change": -0.25}]}]}
